According to article PMC11679285:
Results are given in words; binding and its absence hold for the method and conditions named. Binding seen in cells or lysates may run through a third protein. Some entries that bind do so weakly or less than the wild type.

Legend:
[1] = target: T1, caspase-8 (human (endogenous in MCF7)), Q14790; assay: co-IP; MCF7 lysate, immunoprecipitation with a caspase-8 antibody, western blot; cells treated with 10 uM jacaranone for 6 h, then TNFα (20 ng/mL) for 0.5 h; conditions: remark: other sources report otherwise
T1 chain: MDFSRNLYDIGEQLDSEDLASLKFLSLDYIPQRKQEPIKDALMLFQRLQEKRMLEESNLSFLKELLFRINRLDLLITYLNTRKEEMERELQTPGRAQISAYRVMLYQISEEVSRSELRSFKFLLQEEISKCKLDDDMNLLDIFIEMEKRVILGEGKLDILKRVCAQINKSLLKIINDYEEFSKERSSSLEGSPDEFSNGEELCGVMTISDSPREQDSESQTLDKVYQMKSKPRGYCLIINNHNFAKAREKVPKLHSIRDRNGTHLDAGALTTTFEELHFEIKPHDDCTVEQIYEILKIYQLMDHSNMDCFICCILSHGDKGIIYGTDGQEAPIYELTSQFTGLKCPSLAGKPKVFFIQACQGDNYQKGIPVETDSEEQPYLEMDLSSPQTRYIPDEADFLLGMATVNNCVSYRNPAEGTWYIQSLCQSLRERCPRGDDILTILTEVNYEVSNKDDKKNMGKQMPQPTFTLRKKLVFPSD

[2] = target: caspase-8 (human (endogenous in MCF7)) (UniProt Q14790); assay: as above

| Binder | binding [1] | binding [2] |
| --- | --- | --- |
| TNF receptor associated factor 2 (TRAF2), Q12933 1-501 (protein) MAAASVTPPGSLELLQPGFSKTLLGTKLEAKYLCSACRNVLRRPFQAQCGHRYCSFCLASILSSGPQNCAACVHEGIYEEGISILESSSAFPDNAARREVESLPAVCPSDGCTWKGTLKEYESCHEGRCPLMLTECPACKGLVRLGEKERHLEHECPERSLSCRHCRAPCCGADVKAHHEVCPKFPLTCDGCGKKKIPREKFQDHVKTCGKCRVPCRFHAIGCLETVEGEKQQEHEVQWLREHLAMLLSSVLEAKPLLGDQSHAGSELLQRCESLEKKTATFENIVCVLNREVERVAMTAEACSRQHRLDQDKIEALSSKVQQLERSIGLKDLAMADLEQKVLEMEASTYDGVFIWKISDFARKRQEAVAGRIPAIFSPAFYTSRYGYKMCLRIYLNGDGTGRGTHLSLFFVVMKGPNDALLRWPFNQKVTLMLLDQNNREHVIDAFRPDVTSSSFQRPVNDMNIASGCPLFCPVSKMEAKNSYVRDDAIFIKAIVDLTGL | binds |  |
| TNFR1-associated death domain protein (TRADD) (protein, UniProt Q15628 1-312) MAAGQNGHEEWVGSAYLFVESSLDKVVLSDAYAHPQQKVAVYRALQAALAESGGSPDVLQMLKIHRSDPQLIVQLRFCGRQPCGRFLRAYREGALRAALQRSLAAALAQHSVPLQLELRAGAERLDALLADEERCLSCILAQQPDRLRDEELAELEDALRNLKCGSGARGGDGEVASAPLQPPVPSLSEVKPPPPPPPAQTFLFQGQPVVNRPLSLKDQQTFARSVGLKWRKVGRSLQRGCRALRDPALDSLAYEYEREGLYEQAFQLLRRFVQAEGRRATLQRLVEALEENELTSLAEDLLGLTDPNGGLA |  | binds |
